From publication PMC8579195
No constants are given. Whether binding was seen depends on the method and setting. For some assays here: In cells and extracts the contact can be indirect. Some binding calls cover weakened binding; strength is not graded here. Where a sequence is shown, tags or fusion partners need not be part of it. One block for each molecule: values may come before it.

The chains behind the UniProt entries cited, without tags or fusion partners.
UniProt Q15388: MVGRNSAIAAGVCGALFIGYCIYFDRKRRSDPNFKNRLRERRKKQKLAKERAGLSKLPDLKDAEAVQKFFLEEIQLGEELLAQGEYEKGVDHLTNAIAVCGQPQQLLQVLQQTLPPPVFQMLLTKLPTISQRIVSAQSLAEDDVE

Columns and labels:
[1] = target: T1, PEX19-V5 (human) (UniProt P40855); assay: proximity ligation; Duolink PLA with anti-Myc and anti-V5 primary antibodies in fixed HeLa cells (WT or stably expressing GFP-SKL) transfected for 24 h
T1 sequence: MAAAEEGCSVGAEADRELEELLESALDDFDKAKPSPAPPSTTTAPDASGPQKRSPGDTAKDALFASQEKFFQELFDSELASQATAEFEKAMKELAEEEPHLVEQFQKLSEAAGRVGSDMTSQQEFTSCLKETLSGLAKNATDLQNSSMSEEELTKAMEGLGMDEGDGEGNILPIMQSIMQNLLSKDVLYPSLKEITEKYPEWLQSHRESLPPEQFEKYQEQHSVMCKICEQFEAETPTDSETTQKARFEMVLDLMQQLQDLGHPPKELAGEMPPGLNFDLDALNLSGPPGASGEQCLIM

[2] = target: T2, MARCH5-Myc (human), Q9NX47; assay: as above; details: remark: other sources report otherwise
T2 chain: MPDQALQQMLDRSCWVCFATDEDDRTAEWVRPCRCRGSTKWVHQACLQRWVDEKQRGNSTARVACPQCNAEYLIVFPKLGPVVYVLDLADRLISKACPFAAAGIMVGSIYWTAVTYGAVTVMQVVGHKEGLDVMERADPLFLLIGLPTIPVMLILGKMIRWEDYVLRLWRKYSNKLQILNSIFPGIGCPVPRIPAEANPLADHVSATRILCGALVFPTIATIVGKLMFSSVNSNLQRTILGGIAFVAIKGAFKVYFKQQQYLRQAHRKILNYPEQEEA

[3] = target: T2, MARCH5-Myc (human), Q9NX47; assay: co-IP; HEK293T cotransfected; IP of MARCH5-Myc (Fig. 2A, 2F; IP side not told for Fig. 2D); 50 μM MG132 for 6 h in Fig. 2D and 2F; lysis 50 mM Tris, 200 mM NaCl, 1% NP-40, pH 7.5; details: remark: other sources report otherwise
[4] = target: T3, MARCH5-Myc (human) (UniProt Q9NX47); assay: as above
T3 sequence: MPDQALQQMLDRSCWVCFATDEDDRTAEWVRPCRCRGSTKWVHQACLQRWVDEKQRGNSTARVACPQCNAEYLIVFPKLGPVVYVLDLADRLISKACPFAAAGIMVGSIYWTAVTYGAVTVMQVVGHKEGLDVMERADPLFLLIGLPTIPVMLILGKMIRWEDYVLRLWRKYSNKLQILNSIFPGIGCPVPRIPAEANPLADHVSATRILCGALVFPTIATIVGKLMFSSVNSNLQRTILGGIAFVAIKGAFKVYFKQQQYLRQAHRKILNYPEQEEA

[5] = target: T4, PEX19-3×FLAG (human) (UniProt P40855); assay: co-IP; HEK293T cotransfected with PEX19-3×FLAG and MARCH5-mCherry-Myc variants, 36 h; IP of PEX19-3×FLAG
T4 sequence: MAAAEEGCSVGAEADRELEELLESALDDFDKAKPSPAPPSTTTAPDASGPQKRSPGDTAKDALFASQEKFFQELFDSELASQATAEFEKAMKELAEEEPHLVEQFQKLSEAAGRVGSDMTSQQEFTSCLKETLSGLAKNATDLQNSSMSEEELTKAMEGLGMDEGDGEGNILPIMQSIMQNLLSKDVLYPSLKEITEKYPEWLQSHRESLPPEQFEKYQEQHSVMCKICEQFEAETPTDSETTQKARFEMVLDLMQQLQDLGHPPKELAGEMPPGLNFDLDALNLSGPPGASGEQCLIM

[6] = target: T5, PEX19-3×FLAG (human), P40855; assay: as above; details: remark: other sources report otherwise
T5 chain: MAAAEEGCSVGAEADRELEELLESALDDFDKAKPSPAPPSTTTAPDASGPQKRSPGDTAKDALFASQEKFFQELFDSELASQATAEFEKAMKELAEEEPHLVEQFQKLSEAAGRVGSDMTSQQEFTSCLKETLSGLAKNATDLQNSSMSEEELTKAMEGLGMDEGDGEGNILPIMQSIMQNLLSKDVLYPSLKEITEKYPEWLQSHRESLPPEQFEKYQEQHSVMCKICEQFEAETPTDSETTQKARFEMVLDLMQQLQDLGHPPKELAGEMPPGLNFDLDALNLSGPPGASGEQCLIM

[7] = target: T6, V5-PEX19 (human), P40855; assay: relocalisation in cells (immunofluorescence); V5-PEX19 or NLS-V5-PEX19 coexpressed with MARCH5-Myc or TOMM20-Myc in HeLa cells for 24 h; stained for Myc and V5; details: remark: other sources report otherwise
T6 chain: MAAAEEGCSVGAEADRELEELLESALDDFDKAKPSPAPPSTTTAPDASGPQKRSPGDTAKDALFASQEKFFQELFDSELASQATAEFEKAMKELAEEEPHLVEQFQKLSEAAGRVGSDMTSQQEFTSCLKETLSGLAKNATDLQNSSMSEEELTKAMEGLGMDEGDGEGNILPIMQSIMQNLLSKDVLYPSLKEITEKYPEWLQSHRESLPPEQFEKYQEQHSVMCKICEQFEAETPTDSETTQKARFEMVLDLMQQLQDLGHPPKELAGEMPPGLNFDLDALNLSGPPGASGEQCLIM

[8] = target: T3, MARCH5-Myc (human); assay: proximity ligation; Duolink PLA with anti-Myc and anti-V5 primary antibodies in fixed HeLa cells (WT or stably expressing GFP-SKL) transfected for 24 h
[9] = target: T3, MARCH5-Myc (human); assay: co-IP; HeLa cotransfected with MARCH5-Myc and PEX3-V5 for 18 h, with or without 10 μM MG132 for 6 h; IP and IB with anti-Myc and anti-V5

B1: PEX19-V5, P40855 1-299 (protein)
chain: MAAAEEGCSVGAEADRELEELLESALDDFDKAKPSPAPPSTTTAPDASGPQKRSPGDTAKDALFASQEKFFQELFDSELASQATAEFEKAMKELAEEEPHLVEQFQKLSEAAGRVGSDMTSQQEFTSCLKETLSGLAKNATDLQNSSMSEEELTKAMEGLGMDEGDGEGNILPIMQSIMQNLLSKDVLYPSLKEITEKYPEWLQSHRESLPPEQFEKYQEQHSVMCKICEQFEAETPTDSETTQKARFEMVLDLMQQLQDLGHPPKELAGEMPPGLNFDLDALNLSGPPGASGEQCLIM
- binding [2]: binds
- binding [3]: binds

B2: PEX3(46–373)-3×FLAG (domain or fragment, UniProt P56589 46-373)
chain: AEYIAQARRQYHFESNQRTCNMTVLSMLPTLREALMQQLNSESLTALLKNRPSNKLEIWEDLKIISFTRSTVAVYSTCMLVVLLRVQLNIIGGYIYLDNAAVGKNGTTILAPPDVQQQYLSSIQHLLGDGLTELITVIKQAVQKVLGSVSLKHSLSLLDLEQKLKEIRNLVEQHKSSSWINKDGSKPLLCHYMMPDEETPLAVQACGLSPRDITTIKLLNETRDMLESPDFSTVLNTCLNRGFSRLLDNMAEFFRPTEQDLQHGNSMNSLSSVSLPLAKIIPIVNGQIHSVCSETPSHFVQDLLTMEQVKDFAANVYEAFSTPQQLEK
- binding [4]: binds

B4: MARCH5(HW)-mCherry-Myc, Q9NX47 1-278 (enzyme)
chain: MPDQALQQMLDRSCWVCFATDEDDRTAEWVRPCRCRGSTKWVWQACLQRWVDEKQRGNSTARVACPQCNAEYLIVFPKLGPVVYVLDLADRLISKACPFAAAGIMVGSIYWTAVTYGAVTVMQVVGHKEGLDVMERADPLFLLIGLPTIPVMLILGKMIRWEDYVLRLWRKYSNKLQILNSIFPGIGCPVPRIPAEANPLADHVSATRILCGALVFPTIATIVGKLMFSSVNSNLQRTILGGIAFVAIKGAFKVYFKQQQYLRQAHRKILNYPEQEEA
- binding [6]: binds

B6: MARCH5-Myc, Q9NX47 1-278 (enzyme)
chain: MPDQALQQMLDRSCWVCFATDEDDRTAEWVRPCRCRGSTKWVHQACLQRWVDEKQRGNSTARVACPQCNAEYLIVFPKLGPVVYVLDLADRLISKACPFAAAGIMVGSIYWTAVTYGAVTVMQVVGHKEGLDVMERADPLFLLIGLPTIPVMLILGKMIRWEDYVLRLWRKYSNKLQILNSIFPGIGCPVPRIPAEANPLADHVSATRILCGALVFPTIATIVGKLMFSSVNSNLQRTILGGIAFVAIKGAFKVYFKQQQYLRQAHRKILNYPEQEEA
- binding [7]: binds

B7: PEX3-V5 (protein, UniProt P56589 1-373)
chain: MLRSVWNFLKRHKKKCIFLGTVLGGVYILGKYGQKKIREIQEREAAEYIAQARRQYHFESNQRTCNMTVLSMLPTLREALMQQLNSESLTALLKNRPSNKLEIWEDLKIISFTRSTVAVYSTCMLVVLLRVQLNIIGGYIYLDNAAVGKNGTTILAPPDVQQQYLSSIQHLLGDGLTELITVIKQAVQKVLGSVSLKHSLSLLDLEQKLKEIRNLVEQHKSSSWINKDGSKPLLCHYMMPDEETPLAVQACGLSPRDITTIKLLNETRDMLESPDFSTVLNTCLNRGFSRLLDNMAEFFRPTEQDLQHGNSMNSLSSVSLPLAKIIPIVNGQIHSVCSETPSHFVQDLLTMEQVKDFAANVYEAFSTPQQLEK
- binding [8]: binds
- binding [9]: binds

B8: PEX3-3×FLAG (protein, UniProt P56589 1-373)
chain: MLRSVWNFLKRHKKKCIFLGTVLGGVYILGKYGQKKIREIQEREAAEYIAQARRQYHFESNQRTCNMTVLSMLPTLREALMQQLNSESLTALLKNRPSNKLEIWEDLKIISFTRSTVAVYSTCMLVVLLRVQLNIIGGYIYLDNAAVGKNGTTILAPPDVQQQYLSSIQHLLGDGLTELITVIKQAVQKVLGSVSLKHSLSLLDLEQKLKEIRNLVEQHKSSSWINKDGSKPLLCHYMMPDEETPLAVQACGLSPRDITTIKLLNETRDMLESPDFSTVLNTCLNRGFSRLLDNMAEFFRPTEQDLQHGNSMNSLSSVSLPLAKIIPIVNGQIHSVCSETPSHFVQDLLTMEQVKDFAANVYEAFSTPQQLEK
- binding [4]: binds

The remaining lines, values ahead:

- binding [1]: no binding
Molecule: TOMM20-Myc (from UniProt Q15388 1-145)

- binding [5]: binds
B3: MARCH5 TM region (residues 70-279)-mCherry-Myc (domain or fragment, UniProt Q9NX47 70-278)
chain: AEYLIVFPKLGPVVYVLDLADRLISKACPFAAAGIMVGSIYWTAVTYGAVTVMQVVGHKEGLDVMERADPLFLLIGLPTIPVMLILGKMIRWEDYVLRLWRKYSNKLQILNSIFPGIGCPVPRIPAEANPLADHVSATRILCGALVFPTIATIVGKLMFSSVNSNLQRTILGGIAFVAIKGAFKVYFKQQQYLRQAHRKILNYPEQEEA

- binding [6]: binds
B5: MARCH5-mCherry-Myc, Q9NX47 1-278 (enzyme)
chain: MPDQALQQMLDRSCWVCFATDEDDRTAEWVRPCRCRGSTKWVHQACLQRWVDEKQRGNSTARVACPQCNAEYLIVFPKLGPVVYVLDLADRLISKACPFAAAGIMVGSIYWTAVTYGAVTVMQVVGHKEGLDVMERADPLFLLIGLPTIPVMLILGKMIRWEDYVLRLWRKYSNKLQILNSIFPGIGCPVPRIPAEANPLADHVSATRILCGALVFPTIATIVGKLMFSSVNSNLQRTILGGIAFVAIKGAFKVYFKQQQYLRQAHRKILNYPEQEEA
